Laboratory results taken from the supplement of paper PMC10849652.
The other results are listed elsewhere or left out.

Sequences of proteins named here, by UniProt entry; tags and fusion partners are left off. A change or cut given only in a name is not applied to a line headed by its entry.
UniProt Q9P0R6: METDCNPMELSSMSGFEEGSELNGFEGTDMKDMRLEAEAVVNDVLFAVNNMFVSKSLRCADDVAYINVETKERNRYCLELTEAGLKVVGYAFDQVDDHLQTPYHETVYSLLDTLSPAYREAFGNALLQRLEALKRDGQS
UniProt P49841: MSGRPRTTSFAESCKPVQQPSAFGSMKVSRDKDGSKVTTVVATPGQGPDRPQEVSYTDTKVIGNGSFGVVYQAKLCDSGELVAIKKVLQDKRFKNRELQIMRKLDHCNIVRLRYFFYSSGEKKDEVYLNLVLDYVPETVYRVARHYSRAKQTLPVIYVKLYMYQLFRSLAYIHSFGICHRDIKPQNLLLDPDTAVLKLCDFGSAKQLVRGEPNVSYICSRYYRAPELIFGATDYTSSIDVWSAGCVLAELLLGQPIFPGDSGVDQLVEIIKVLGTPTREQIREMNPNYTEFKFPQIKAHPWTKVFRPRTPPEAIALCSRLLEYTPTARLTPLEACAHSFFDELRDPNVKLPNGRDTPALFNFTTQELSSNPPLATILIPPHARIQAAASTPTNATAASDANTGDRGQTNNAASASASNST
UniProt Q9H6D7: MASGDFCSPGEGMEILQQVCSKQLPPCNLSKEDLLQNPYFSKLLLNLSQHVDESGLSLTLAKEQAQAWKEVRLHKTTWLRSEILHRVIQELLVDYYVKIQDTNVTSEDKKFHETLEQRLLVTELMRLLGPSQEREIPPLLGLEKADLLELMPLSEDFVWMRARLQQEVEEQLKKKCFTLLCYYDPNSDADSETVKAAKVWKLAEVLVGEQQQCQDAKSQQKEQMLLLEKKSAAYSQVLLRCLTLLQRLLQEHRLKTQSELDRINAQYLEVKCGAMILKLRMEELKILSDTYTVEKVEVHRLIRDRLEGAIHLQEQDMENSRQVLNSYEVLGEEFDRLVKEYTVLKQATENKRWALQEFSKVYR
UniProt P29084: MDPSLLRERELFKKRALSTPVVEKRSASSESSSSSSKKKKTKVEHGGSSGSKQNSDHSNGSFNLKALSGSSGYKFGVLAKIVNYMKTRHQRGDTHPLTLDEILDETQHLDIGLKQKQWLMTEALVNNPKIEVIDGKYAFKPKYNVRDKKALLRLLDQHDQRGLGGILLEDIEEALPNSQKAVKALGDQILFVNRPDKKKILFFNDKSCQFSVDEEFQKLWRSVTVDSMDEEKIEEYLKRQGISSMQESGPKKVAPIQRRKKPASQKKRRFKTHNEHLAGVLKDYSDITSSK
UniProt P00390: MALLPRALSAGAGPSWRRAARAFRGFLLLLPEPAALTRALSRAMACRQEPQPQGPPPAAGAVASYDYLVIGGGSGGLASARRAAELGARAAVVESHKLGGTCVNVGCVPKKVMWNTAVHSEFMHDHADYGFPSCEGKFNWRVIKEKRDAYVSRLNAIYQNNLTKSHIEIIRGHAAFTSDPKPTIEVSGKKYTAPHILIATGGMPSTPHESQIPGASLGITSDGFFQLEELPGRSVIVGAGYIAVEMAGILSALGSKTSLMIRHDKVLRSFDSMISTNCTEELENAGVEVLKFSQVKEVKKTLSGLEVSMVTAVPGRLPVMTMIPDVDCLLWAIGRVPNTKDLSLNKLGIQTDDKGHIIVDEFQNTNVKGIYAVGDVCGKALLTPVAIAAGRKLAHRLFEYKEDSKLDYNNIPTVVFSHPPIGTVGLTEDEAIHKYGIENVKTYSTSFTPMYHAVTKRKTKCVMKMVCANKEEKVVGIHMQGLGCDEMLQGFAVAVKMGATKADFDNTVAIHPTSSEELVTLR
UniProt Q7Z4H7: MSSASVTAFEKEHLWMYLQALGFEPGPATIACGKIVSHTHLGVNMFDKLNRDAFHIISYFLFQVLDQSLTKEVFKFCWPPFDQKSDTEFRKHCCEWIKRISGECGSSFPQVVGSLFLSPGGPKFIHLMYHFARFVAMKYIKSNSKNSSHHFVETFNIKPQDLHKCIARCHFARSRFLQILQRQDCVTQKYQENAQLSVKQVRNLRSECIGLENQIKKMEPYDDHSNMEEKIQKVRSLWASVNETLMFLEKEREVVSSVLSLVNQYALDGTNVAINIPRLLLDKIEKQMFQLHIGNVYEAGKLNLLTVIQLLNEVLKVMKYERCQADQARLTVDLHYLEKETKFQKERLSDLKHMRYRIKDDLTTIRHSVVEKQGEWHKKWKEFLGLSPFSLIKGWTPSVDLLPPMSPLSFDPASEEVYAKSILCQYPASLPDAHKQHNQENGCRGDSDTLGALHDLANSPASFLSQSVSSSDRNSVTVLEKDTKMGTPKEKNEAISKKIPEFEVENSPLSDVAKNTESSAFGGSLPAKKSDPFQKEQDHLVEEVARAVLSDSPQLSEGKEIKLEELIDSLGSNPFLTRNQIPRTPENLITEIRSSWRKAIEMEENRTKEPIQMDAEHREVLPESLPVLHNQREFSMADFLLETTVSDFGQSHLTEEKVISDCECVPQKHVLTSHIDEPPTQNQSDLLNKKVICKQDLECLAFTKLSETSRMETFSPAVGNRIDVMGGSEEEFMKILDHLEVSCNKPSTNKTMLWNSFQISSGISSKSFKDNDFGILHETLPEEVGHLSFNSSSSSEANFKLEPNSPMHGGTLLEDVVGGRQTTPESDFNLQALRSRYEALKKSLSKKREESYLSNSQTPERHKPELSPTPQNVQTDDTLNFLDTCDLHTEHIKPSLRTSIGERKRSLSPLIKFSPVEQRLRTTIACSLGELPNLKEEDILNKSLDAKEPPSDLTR
UniProt P14210, whole entry, looked up: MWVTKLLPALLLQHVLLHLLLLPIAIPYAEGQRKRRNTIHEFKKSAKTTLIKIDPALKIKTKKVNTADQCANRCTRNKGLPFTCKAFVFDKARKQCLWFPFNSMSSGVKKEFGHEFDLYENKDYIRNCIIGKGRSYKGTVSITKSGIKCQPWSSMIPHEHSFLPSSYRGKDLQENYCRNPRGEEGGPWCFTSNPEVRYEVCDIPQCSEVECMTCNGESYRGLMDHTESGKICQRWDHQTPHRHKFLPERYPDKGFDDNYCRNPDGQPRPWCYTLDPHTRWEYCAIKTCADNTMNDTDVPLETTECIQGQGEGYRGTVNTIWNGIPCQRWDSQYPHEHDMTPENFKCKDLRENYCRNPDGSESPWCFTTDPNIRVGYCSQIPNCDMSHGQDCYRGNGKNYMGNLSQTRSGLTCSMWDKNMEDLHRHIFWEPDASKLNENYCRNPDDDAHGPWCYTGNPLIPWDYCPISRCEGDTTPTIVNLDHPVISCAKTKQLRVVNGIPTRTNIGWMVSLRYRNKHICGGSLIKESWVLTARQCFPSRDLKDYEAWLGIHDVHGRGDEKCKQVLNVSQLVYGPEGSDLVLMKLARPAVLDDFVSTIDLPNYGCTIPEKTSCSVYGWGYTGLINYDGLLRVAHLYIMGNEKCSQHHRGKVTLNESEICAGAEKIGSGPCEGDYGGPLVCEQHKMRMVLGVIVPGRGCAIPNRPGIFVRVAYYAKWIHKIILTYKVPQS
UniProt Q8N442: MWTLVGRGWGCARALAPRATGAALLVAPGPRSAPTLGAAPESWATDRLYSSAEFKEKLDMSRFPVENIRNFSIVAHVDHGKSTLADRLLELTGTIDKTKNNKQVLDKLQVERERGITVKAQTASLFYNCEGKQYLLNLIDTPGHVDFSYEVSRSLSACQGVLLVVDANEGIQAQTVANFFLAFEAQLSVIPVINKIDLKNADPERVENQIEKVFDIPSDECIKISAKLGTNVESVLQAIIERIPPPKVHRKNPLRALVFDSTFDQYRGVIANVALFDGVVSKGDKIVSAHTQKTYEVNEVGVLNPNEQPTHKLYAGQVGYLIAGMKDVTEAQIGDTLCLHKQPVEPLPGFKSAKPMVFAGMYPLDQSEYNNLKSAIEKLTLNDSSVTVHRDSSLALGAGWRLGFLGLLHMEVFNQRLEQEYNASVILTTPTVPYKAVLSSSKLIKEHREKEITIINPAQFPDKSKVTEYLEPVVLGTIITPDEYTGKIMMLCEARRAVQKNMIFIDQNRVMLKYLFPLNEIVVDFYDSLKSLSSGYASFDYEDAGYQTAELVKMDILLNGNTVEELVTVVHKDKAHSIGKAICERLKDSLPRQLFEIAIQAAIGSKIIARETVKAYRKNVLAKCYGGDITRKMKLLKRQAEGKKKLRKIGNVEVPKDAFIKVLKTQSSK
UniProt Q14469: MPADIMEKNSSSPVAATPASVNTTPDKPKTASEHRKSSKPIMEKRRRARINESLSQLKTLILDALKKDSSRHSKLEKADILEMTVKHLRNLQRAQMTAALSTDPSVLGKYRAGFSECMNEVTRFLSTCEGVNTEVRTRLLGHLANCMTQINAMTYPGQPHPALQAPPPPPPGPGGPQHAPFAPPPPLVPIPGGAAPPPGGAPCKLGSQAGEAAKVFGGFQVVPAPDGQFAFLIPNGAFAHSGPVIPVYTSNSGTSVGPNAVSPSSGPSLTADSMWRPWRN
UniProt Q8IYD1, whole entry, looked up: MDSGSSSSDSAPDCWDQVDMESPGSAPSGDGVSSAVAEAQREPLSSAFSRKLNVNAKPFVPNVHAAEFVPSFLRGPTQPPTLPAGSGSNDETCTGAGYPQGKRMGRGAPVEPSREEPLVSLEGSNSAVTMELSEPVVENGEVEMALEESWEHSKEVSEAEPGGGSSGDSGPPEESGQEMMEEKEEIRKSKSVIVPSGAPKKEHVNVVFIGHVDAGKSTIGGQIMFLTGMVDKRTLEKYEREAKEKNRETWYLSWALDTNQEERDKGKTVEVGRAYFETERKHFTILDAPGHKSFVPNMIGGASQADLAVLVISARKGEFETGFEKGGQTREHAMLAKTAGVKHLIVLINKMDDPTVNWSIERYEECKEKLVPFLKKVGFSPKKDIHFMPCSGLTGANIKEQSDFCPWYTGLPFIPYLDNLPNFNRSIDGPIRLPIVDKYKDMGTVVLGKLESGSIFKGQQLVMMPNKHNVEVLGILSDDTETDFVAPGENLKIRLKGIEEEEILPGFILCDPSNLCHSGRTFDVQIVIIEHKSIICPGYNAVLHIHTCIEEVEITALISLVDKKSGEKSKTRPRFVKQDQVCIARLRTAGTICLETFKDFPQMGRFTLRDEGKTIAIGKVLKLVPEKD
UniProt Q99871: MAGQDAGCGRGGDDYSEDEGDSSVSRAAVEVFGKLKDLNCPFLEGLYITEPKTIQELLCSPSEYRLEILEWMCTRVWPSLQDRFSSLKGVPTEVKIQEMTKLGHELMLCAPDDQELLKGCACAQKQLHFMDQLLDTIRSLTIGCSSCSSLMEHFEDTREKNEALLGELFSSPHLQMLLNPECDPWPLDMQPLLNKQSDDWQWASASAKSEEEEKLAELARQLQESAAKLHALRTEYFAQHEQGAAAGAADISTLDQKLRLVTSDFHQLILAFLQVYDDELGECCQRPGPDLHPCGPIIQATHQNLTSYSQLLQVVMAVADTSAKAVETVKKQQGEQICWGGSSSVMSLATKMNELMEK
UniProt Q9BSE4: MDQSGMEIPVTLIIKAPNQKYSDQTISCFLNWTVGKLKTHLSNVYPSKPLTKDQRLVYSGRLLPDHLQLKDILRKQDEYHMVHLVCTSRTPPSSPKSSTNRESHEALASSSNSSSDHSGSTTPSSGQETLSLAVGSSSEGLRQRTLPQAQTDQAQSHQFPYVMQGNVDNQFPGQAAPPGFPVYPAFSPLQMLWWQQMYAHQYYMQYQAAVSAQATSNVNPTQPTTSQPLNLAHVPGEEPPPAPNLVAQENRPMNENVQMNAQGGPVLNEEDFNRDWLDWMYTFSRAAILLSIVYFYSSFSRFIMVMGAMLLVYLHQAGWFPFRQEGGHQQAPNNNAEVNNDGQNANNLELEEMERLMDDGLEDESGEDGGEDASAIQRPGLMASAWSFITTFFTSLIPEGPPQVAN
UniProt O75367, whole entry, looked up: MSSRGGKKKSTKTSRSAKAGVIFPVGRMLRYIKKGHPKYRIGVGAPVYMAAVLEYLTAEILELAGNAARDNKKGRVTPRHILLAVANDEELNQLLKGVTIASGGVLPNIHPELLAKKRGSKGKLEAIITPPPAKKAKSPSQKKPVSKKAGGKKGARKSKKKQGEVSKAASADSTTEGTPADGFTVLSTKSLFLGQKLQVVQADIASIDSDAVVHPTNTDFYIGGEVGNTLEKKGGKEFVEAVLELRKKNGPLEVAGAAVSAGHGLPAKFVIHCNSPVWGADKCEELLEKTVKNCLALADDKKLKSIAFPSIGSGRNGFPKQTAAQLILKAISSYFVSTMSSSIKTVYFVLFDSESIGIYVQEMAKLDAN
UniProt Q92759: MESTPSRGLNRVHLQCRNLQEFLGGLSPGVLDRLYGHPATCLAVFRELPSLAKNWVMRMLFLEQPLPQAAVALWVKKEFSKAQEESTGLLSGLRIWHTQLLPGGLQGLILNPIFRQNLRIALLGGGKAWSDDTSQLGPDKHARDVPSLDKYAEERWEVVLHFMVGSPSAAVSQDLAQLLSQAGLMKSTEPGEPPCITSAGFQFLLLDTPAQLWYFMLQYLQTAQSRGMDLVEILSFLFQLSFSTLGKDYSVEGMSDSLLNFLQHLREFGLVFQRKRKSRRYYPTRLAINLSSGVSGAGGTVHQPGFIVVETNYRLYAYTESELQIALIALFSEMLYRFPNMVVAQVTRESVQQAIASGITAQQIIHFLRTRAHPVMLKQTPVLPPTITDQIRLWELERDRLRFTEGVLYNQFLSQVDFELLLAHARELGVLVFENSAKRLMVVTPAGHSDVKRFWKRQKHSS

Tests used:
Experiment in all cases: log2 fold change, soluble protein after heating vs DMSO (PISA); higher = thermal stabilisation; K562 cells, 10 uM, 30 min; active = over 0.2 and 3.5 SD of the protein, either way, in both replicates (recomputed)
[1] = compound: C1=CC=C(C=C1)[C@H](COC2=CC3=C(C=C2)NC(=O)N3)NC(=O)C4=CC=CN(C4=O)CC5=CC(=C(C=C5)F)F
In short: (§1)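 K562 cells at 2×10^6 cells/mL were exposed to 10 μM compound for 30 min, then aliquots were heated for 3 min across 48°C-58°C, pooled, and extracted in PBS containing 0.5% NP-40 at 4°C. The supernatant after 21,000xg for 90 min was taken as soluble protein and measured by TMTpro 16plex LC-MS/MS with channel sums equalised. Thermal stability is reported relative to control samples, with values from duplicates. Fold changes are given on a log2 scale.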

[2] = compound: CC1=C(SC2=C1C(=N[C@H](C3=NN=C(N32)C)CC(=O)N)C4=CC=C(C=C4)Cl)C
In short: as §1

[3] = compound: CC1=C2C(=CC=C1)N=C(N(C2=O)C3=CC=CC=C3C)CN4C=NC5=C(N=CN=C54)N
In short: as §1

[4] = compound: Cc1sc2c(c1C)C(c1ccc(Cl)cc1)=N[C@@H](CC(=O)OC(C)(C)C)c1nnc(C)n1-2
In short: as §1

[5] = compound: c1ccc([C@@H]2C[C@H]2NC2CCNCC2)cc1
In short: as §1

Measured: log2 fold change

GSKIP (UniProt Q9P0R6)
inactive: [1] 0.054 | [2] 0.053 | [3] 0.031 | [4] -0.185 | [5] -0.103

HCCS (UniProt P53701)
inactive: [1] 0.022 | [2] -0.001 | [3] 0.049 | [4] 0.056 | [5] 0.037

GSTM5 (UniProt P46439)
inactive: [1] -0.018 | [2] -0.009 | [3] 0.043 | [4] 0.068 | [5] 0.044

GSK3B isoform 2 (UniProt P49841)
inactive: [1] 0 | [2] 0.083 | [3] 0.026 | [4] -0.016 | [5] -0.008

H2AFX (UniProt P16104)
inactive: [1] 0.103 | [2] -0.353 | [3] -0.374 | [4] -0.043 | [5] 0.206

HDAC1 (UniProt Q13547)
inactive: [1] 0.004 | [2] 0 | [3] -0.004 | [4] 0.03 | [5] 0.154

HAUS4 (UniProt Q9H6D7)
inactive: [1] 0.094 | [2] -0.066 | [3] 0.077 | [4] -0.021 | [5] -0.002

Taken from the listing (2 entries):
GSK3B isoform 2 (UniProt P49841)
inactive: [1] 0 | [2] 0.083 | [3] 0.026 | [4] -0.016 | [5] -0.008

H2AFX (UniProt P16104)
inactive: [1] 0.103 | [2] -0.353 | [3] -0.374 | [4] -0.043 | [5] 0.206

(listing goes on)

HEPH isoform 3 (UniProt Q9BQS7)
inactive: [1] 0.005 | [2] 0.043 | [3] -0.023 | [4] 0.029 | [5] -0.002

GTF2E2 (UniProt P29084)
inactive: [1] -0.009 | [2] 0.043 | [3] 0.126 | [4] -0.058 | [5] 0.012

HDGFL2 (UniProt Q7Z4V5)
inactive: [1] -0.043 | [2] 0.007 | [3] -0.03 | [4] -0.012 | [5] 0.065

GYS1 (UniProt P13807)
inactive: [1] 0.007 | [2] -0.13 | [3] -0.02 | [4] 0.023 | [5] 0.054

HEATR6 (UniProt Q6AI08)
inactive: [1] 0.125 | [2] 0.038 | [3] 0.114 | [4] 0.016 | [5] -0.009

HARS2 (UniProt P49590)
inactive: [1] 0.042 | [2] -0.023 | [3] 0.008 | [4] -0.011 | [5] 0.048

HBS1L (UniProt Q9Y450)
inactive: [1] -0.024 | [2] 0.02 | [3] 0.062 | [4] -0.001 | [5] -0.008

HBG2 (UniProt P69892)
inactive: [1] 0.007 | [2] 0.094 | [3] -0.008 | [4] -0.085 | [5] -0.019

GTF2A1 (UniProt P52655)
inactive: [1] 0.04 | [2] -0.021 | [3] -0.01 | [4] -0.004 | [5] -0.006

GSR (UniProt P00390)
inactive: [1] 0.006 | [2] 0.044 | [3] 0.034 | [4] -0.023 | [5] -0.003

GTF2F2 (UniProt P13984)
inactive: [1] -0.004 | [2] 0.044 | [3] 0.077 | [4] -0.005 | [5] -0.011

HAUS6 (UniProt Q7Z4H7)
inactive: [1] 0.029 | [2] -0.2 | [4] 0.08 | [5] 0.098

GZF1 (UniProt Q9H116)
inactive: [3] -0.273

HGF (UniProt P14210)
inactive: [1] -0.011 | [2] -0.101 | [4] 0.103 | [5] 0.093

H3-2 (UniProt Q5TEC6)
inactive: [1] 0.092 | [3] 0.401

HEXD isoform 2 (UniProt Q8WVB3)
inactive: [3] -0.033

HELZ (UniProt P42694)
inactive: [1] -0.012 | [2] -0.196 | [3] -0.066 | [5] 0.135

GUF1 (UniProt Q8N442)
inactive: [3] 0.014 | [4] -0.126

GSTM2 (UniProt P28161)
inactive: [1] -0.034 | [2] 0.247 | [3] 0.038 | [4] -0.039 | [5] -0.016

GYPA (UniProt P02724)
inactive: [1] 0.005 | [2] -0.029 | [3] -0.099 | [4] 0.017 | [5] -0.011

HES1 (UniProt Q14469)
inactive: [2] 0.091 | [4] -0.076 | [5] 0.057

HERPUD1 (UniProt Q15011)
inactive: [3] 0.016 | [4] -0.049

GSPT2 (UniProt Q8IYD1)
inactive: [1] -0.02 | [2] -0.06 | [3] 0.087 | [5] 0.07

GTF3C3 (UniProt Q9Y5Q9)
inactive: [1] -0.097 | [4] 0.04

HDAC5 isoform 3 (UniProt Q9UQL6)
inactive: [1] -0.061 | [2] 0.006 | [4] 0.082 | [5] 0.055

HACE1 (UniProt Q8IYU2)
inactive: [4] 0.07

HEATR1 (UniProt Q9H583)
inactive: [1] 0.043 | [3] 0.016 | [4] -0.018

HAGHL isoform 2 (UniProt Q6PII5)
inactive: [1] -0.168 | [2] -0.134 | [3] 0.068 | [5] -0.12

HAL (UniProt P42357)
inactive: [2] -0.034 | [3] -0.692 | [4] -0.136 | [5] 0.219

H6PD (UniProt O95479)
inactive: [2] -0.11 | [3] 0.304 | [4] -0.05 | [5] -0.075

HEXIM2 (UniProt Q96MH2)
inactive: [3] 0.08

HAUS8 (UniProt Q9BT25)
inactive: [2] -0.402 | [3] 0.078 | [5] 0.03

HACD2 (UniProt Q6Y1H2)
inactive: [2] -0.028 | [4] 0.067 | [5] 0.018

HAUS2 (UniProt Q9NVX0)
inactive: [2] 0.051 | [5] 0.069

GSTA1 (UniProt P08263)
inactive: [1] -0.111 | [3] 0.167 | [4] 0.096

GTPBP8 (UniProt Q8N3Z3)
inactive: [3] 0.044 | [4] -0.034

HAUS5 (UniProt O94927)
inactive: [4] 0.293

HAUS7 isoform 2 (UniProt Q99871)
inactive: [3] 0.129

HERPUD2 (UniProt Q9BSE4)
inactive: [1] 0.064 | [2] 0.01 | [3] 0.058 | [5] 0.155

H2AFY (UniProt O75367)
inactive: [1] 0.029 | [2] -0.169 | [4] -0.4 | [5] 0.02

GSTCD (UniProt Q8NEC7)
inactive: [1] 0 | [2] 0.039 | [3] 0.139 | [4] 0.13 | [5] -0.091

HCFC1 (UniProt P51610)
inactive: [3] -0.061 | [4] -0.018

2 records drawn at random from the list so far, as already listed:
H2AFY (UniProt O75367)
inactive: [1] 0.029 | [2] -0.169 | [4] -0.4 | [5] 0.02

HERPUD2 (UniProt Q9BSE4)
inactive: [1] 0.064 | [2] 0.01 | [3] 0.058 | [5] 0.155

Next records follow:

GSTM4 (UniProt Q03013)
inactive: [1] 0.064 | [2] 0.063 | [3] -0.114 | [4] -0.027 | [5] 0.03

HAUS3 (UniProt Q68CZ6)
inactive: [2] -0.145 | [3] -0.234 | [4] 0.231 | [5] 0

GXYLT1 (UniProt Q4G148)
inactive: [1] -0.106 | [2] 0.033 | [3] 0.017 | [4] 0.032 | [5] 0.025

HECTD4 (UniProt Q9Y4D8)
inactive: [3] 0.023

GTF2H1 (UniProt P32780)
inactive: [2] -0.06 | [3] -0.007 | [5] 0.021

GTF2H4 (UniProt Q92759)
inactive: [2] -0.383 | [3] 0.026 | [4] 0.287 | [5] -0.152

HAGHL (UniProt Q6PII5)
inactive: [1] 0.109 | [2] 0.021 | [4] 0.077 | [5] 0.023
